The values below come from patent publication US20170355959A1, “METHODS FOR MOBILISING POPULATIONS OF STEM CELLS” (Imperial Innovations Limited, priority 2014, published 2017).

This assay has as its system CFU-Fs (MSPCs). The experiment in a line: Mobilization of MSPCs into peripheral blood (CFU-F assay). Format: in vivo, mice. The conditions noted are these: inhibitor or antagonist given 60 minutes prior to BRL 37344, once daily for 4 days.

As for `COc1ccc2cc([C@H](C)C(=O)O)ccc2c1` [Naproxen], the “effect on CFU-F mobilization induced by 4 day beta 3 adrenergic agonist and CXCR4 antagonist” value is on record as “significant increase in the mobilization of both HSPCs or CFU-Fs”.
